{"source": "PubChem BioAssay AID1224828 – NIAID, 2016", "assay": "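Find genes required for NF-kappaB p65 moving into the nucleus after LPS in mouse macrophages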 (primary screen)", "cell system": "mouse RAW264.7 G9 macrophage reporter cells (GFP-p65, Tnf promoter-mCherry)", "knock-down reagent": "siRNA pool against mouse genes, 100 nM", "time to read-out": "2 days siRNA transfection, then 40 min LPS before fixation", "treatment": "LPS (Salmonella minnesota R595) at 10 ng/ml", "detection": "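Imaged p65 nuclear translocation ratio, normalised to the plate median, converted to robust z-scores and averaged across two replicates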", "scale": "p65 translocation robust z-score: higher = more nuclear NF-kappaB p65 after LPS than the plate median; nuclear/cytoplasmic p65 ratio: higher = more nuclear NF-kappaB p65", "call rule": "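Active if robust z is above 3.3 (negative regulators) or below -1.56, the Tlr4 control median (positive regulators); activity score 50 or more; control wells not called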", "meaning of the calls": "active = hit (p65 shift raised or lowered); inactive = no clear change", "note": "Here is an unselected part of about 17,000 deposited reagents. 762 of them (4.5%) were called active. 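Active calls include both raised and lowered p65 entry, mostly lowered; wells with fewer than 50 cells lack a z-score.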 Raw values vary from plate to plate and are shown uncorrected. Reagent sequences are not shown."}
{"gene symbol": "Mcam (GeneID 84004)", "p65 translocation robust z-score": -1.05, "nuclear/cytoplasmic p65 ratio, rep 1": 1.27, "nuclear/cytoplasmic p65 ratio, rep 2": 1.24, "low cell count flag": "enough cells to score", "Call": "inactive"}
{"gene symbol": "4930449I24Rik (GeneID 67410)", "nuclear/cytoplasmic p65 ratio, rep 1": 1.57, "nuclear/cytoplasmic p65 ratio, rep 2": 1.42, "low cell count flag": "fewer than 50 cells per well; well left out of scoring", "Call": "inactive"}
{"gene symbol": "Bnip1 (GeneID 224630)", "p65 translocation robust z-score": 0.06, "nuclear/cytoplasmic p65 ratio, rep 1": 1.69, "nuclear/cytoplasmic p65 ratio, rep 2": 1.55, "low cell count flag": "enough cells to score", "Call": "inactive"}
{"gene symbol": "Vpreb1b (GeneID 22363)", "p65 translocation robust z-score": -1.1, "nuclear/cytoplasmic p65 ratio, rep 1": 1.4, "nuclear/cytoplasmic p65 ratio, rep 2": 1.31, "low cell count flag": "enough cells to score", "Call": "inactive"}
{"gene symbol": "Fut9 (GeneID 14348)", "p65 translocation robust z-score": 0.41, "nuclear/cytoplasmic p65 ratio, rep 1": 1.64, "nuclear/cytoplasmic p65 ratio, rep 2": 1.53, "low cell count flag": "enough cells to score", "Call": "inactive"}
{"gene symbol": "Hmga1 (GeneID 15361)", "p65 translocation robust z-score": -1.67, "nuclear/cytoplasmic p65 ratio, rep 1": 1.19, "nuclear/cytoplasmic p65 ratio, rep 2": 1.19, "low cell count flag": "enough cells to score", "Call": "active"}
{"gene symbol": "Alg8 (GeneID 381903)", "p65 translocation robust z-score": -1.35, "nuclear/cytoplasmic p65 ratio, rep 1": 1.35, "nuclear/cytoplasmic p65 ratio, rep 2": 1.54, "low cell count flag": "enough cells to score", "Call": "inactive"}
{"gene symbol": "Akr1b7 (GeneID 11997)", "p65 translocation robust z-score": -2.47, "nuclear/cytoplasmic p65 ratio, rep 1": 1.23, "nuclear/cytoplasmic p65 ratio, rep 2": 1.31, "low cell count flag": "enough cells to score", "Call": "active"}

Reagents above marked active:
{"gene symbol": "Hmga1 (GeneID 15361)", "p65 translocation robust z-score": -1.67, "nuclear/cytoplasmic p65 ratio, rep 1": 1.19, "nuclear/cytoplasmic p65 ratio, rep 2": 1.19, "low cell count flag": "enough cells to score", "Call": "active"}
{"gene symbol": "Akr1b7 (GeneID 11997)", "p65 translocation robust z-score": -2.47, "nuclear/cytoplasmic p65 ratio, rep 1": 1.23, "nuclear/cytoplasmic p65 ratio, rep 2": 1.31, "low cell count flag": "enough cells to score", "Call": "active"}

Continued.
{"gene symbol": "Rnf187 (GeneID 108660)", "nuclear/cytoplasmic p65 ratio, rep 1": 1.32, "nuclear/cytoplasmic p65 ratio, rep 2": 1.47, "low cell count flag": "fewer than 50 cells per well; well left out of scoring", "Call": "inactive"}
{"gene symbol": "Clp1 (GeneID 98985)", "p65 translocation robust z-score": 0.21, "nuclear/cytoplasmic p65 ratio, rep 1": 1.62, "nuclear/cytoplasmic p65 ratio, rep 2": 1.73, "low cell count flag": "enough cells to score", "Call": "inactive"}
{"gene symbol": "Slco1c1 (GeneID 58807)", "nuclear/cytoplasmic p65 ratio, rep 1": 1.62, "nuclear/cytoplasmic p65 ratio, rep 2": 1.36, "low cell count flag": "fewer than 50 cells per well; well left out of scoring", "Call": "inactive"}
{"gene symbol": "Rell2 (GeneID 225392)", "nuclear/cytoplasmic p65 ratio, rep 1": 1.4, "nuclear/cytoplasmic p65 ratio, rep 2": 1.11, "low cell count flag": "fewer than 50 cells per well; well left out of scoring", "Call": "inactive"}
